Experimental data: patent publication US20220041582A1, “ISOXAZOLINE COMPOUNDS FOR CONTROLLING INVERTEBRATE PESTS” (FMC Corporation, priority 2018, published 2022)
Some of these results come from one statement about several compounds together.

Key:
Type in all cases: in vivo
[1] = system: diamondback moth (Plutella xylostella (L.)); assay: Test A: control of diamondback moth on mustard plant, foliar spray; conditions: 6 days, 40% or less feeding damage and/or 100% mortality
[2] = system: fall armyworm (Spodoptera frugiperda (J. E. Smith)); assay: Test B: control of fall armyworm on corn plant, foliar spray; conditions: 6 days, 40% or less feeding damage and/or 100% mortality
[3] = system: corn planthopper (Peregrinus maidis (Ashmead)); assay: Test C: control of corn planthopper through contact and/or systemic means; conditions: 50 ppm spray; 6 days
Protocol: (§1) Formulation and Spray Methodology for Tests A-H
(§2) Test compounds were formulated using a solution containing 10% acetone, 90% water and 300 ppm Activator 90® non-ionic surfactant (Loveland Products, Loveland, Colo., USA). The formulated compounds were applied in 1 mL of liquid through an atomizer nozzle positioned 1.27 cm (0.5 inches) above the top of each test unit. Test compounds were sprayed at the rates indicated, and each test was replicated three times.
For evaluating control of corn planthopper (Peregrinus maidis (Ashmead)) through contact and/or systemic means, the test unit consisted of a small open container with a 3-4-day-old corn (maize) plant inside. White sand was added to the top of the soil prior to application of the test compound.
Test compounds were formulated and sprayed at 50 and 10 ppm. After spraying of the formulated test compound, the test units were allowed to dry for 1 h before they were post-infested with ˜15-20 nymphs (18-to-21-day-old). A black, screened cap was placed on the top of each test unit, and the test units were held for 6 days in a growth chamber at 22-24° C. and 50-70% relative humidity. Each test unit was then visually assessed for insect mortality.

[4] = system: potato leafhopper (Empoasca fabae (Harris)); assay: Test D: control of potato leafhopper through contact and/or systemic means; conditions: 6 days
Protocol: as §1, §2
[…] White sand was added to the top of the soil, and one of the primary leaves was excised prior to application of the test compound.
Test compounds were formulated and sprayed at 250, 50 and 10 ppm. After spraying of the formulated test compound, the test units were allowed to dry for 1 hour before they were post-infested with 5 potato leafhoppers (18-to-21-day-old adults). A black, screened cap was placed on the top of the test unit, and the test units were held for 6 days in a growth chamber at 20° C. and 70% relative humidity. Each test unit was then visually assessed for insect mortality.

[5] = system: green peach aphid (Myzus persicae (Sulzer)); assay: Test E: control of green peach aphid through contact and/or systemic means; conditions: 6 days
Protocol: as §1, §2
For evaluating control of green peach aphid (Myzus persicae (Sulzer)) through contact and/or systemic means, the test unit consisted of a small open container with a 12-15-day-old radish plant inside. This was pre-infested by placing on a leaf of the test plant 30-40 aphids on a piece of leaf excised from a culture plant (cut-leaf method). The aphids moved onto the test plant as the leaf piece desiccated. After pre-infestation, the soil of the test unit was covered with a layer of sand.
Test compounds were formulated and sprayed at 250, 50 and 10 ppm. After spraying of the formulated test compound, each test unit was allowed to dry for 1 hour and then a black, screened cap was placed on top. The test units were held for 6 days in a growth chamber at 19-21° C. and 50-70% relative humidity. Each test unit was then visually assessed for insect mortality.

[6] = system: cotton melon aphid (Aphis gossypii (Glover)); assay: Test F: control of cotton melon aphid through contact and/or systemic means; conditions: 6 days
Protocol: as §1, §2
[…] This was pre-infested with 30-40 insects on a piece of leaf according to the cut-leaf method, and the soil of the test unit was covered with a layer of sand.
Test compounds were formulated and sprayed at 250, 50 and 10 ppm. After spraying, the test units were maintained in a growth chamber for 6 days at 19° C. and 70% relative humidity. Each test unit was then visually assessed for insect mortality.

[7] = system: sweetpotato whitefly (Bemisia tabaci (Gennadius)); assay: Test G: control of sweetpotato whitefly through contact and/or systemic means; conditions: 13 days
Protocol: as §1, §2
For evaluating control of the sweetpotato whitefly (Bemisia tabaci (Gennadius)) through contact and/or systemic means, the test unit consisted of a small open container with a 12-14-day-old cotton plant inside. Prior to the spray application, both cotyledons were removed from the plant, leaving one true leaf for the assay. Adult whiteflies were allowed to lay eggs on the plant and then were removed from the test unit. Cotton plants infested with at least 15 eggs were submitted to the test for spraying.
Test compounds were formulated and sprayed at 250, 50 and 10 ppm. After spraying, the test units were allowed to dry for 1 hour. The cylinders were then removed, and the units were taken to a growth chamber and held for 13 days at 28° C. and 50-70% relative humidity. Each test unit was then visually assessed for insect mortality.

[8] = system: Western Flower Thrips (Frankliniellla occidentalis (Pergande)); assay: Test H: control of Western Flower Thrips through contact and/or systemic means; conditions: 6 days, 30% or less plant damage and/or 100% mortality

Row | Compound | control efficacy: feeding damage (and/or 100% mortality) ([1]; 0.4 ppm spray) [%] | control efficacy: feeding damage (and/or 100% mortality) ([1]; 2 ppm spray) [%] | control efficacy: feeding damage (and/or 100% mortality) ([2]; 0.4 ppm spray) [%] | control efficacy: feeding damage (and/or 100% mortality) ([2]; 2 ppm spray) [%] | mortality [3] | mortality ([4]; 50 ppm spray) | mortality ([5]; 10 ppm spray) | mortality ([5]; 50 ppm spray) | mortality ([6]; 10 ppm spray) | mortality ([6]; 50 ppm spray) | mortality ([7]; 50 ppm spray) | control efficacy: plant damage (and/or 100% mortality) ([8]; 0.4 ppm spray) [%] | control efficacy: plant damage (and/or 100% mortality) ([8]; 2 ppm spray) [%] | control efficacy: feeding damage (and/or 100% mortality) ([1]; 10 ppm spray) [%] | control efficacy: feeding damage (and/or 100% mortality) ([2]; 10 ppm spray) [%] | mortality ([7]; 10 ppm spray) | control efficacy: plant damage (and/or 100% mortality) ([8]; 10 ppm spray) [%] | mortality ([4]; 10 ppm spray)
1 | O=C(NCc1ncccn1)c1ccc(C2=NOC(c3cc(Cl)c(F)c(Cl)c3)(C(F)(F)F)C2)c2ccncc12 (single isomer, unassigned) [Compound 68] | ≤ 40 | ≤ 40 | ≤ 40 | ≤ 40 | at least 80% | at least 80% | at least 80% | at least 80% | at least 80% | at least 80% | at least 50% | ≤ 30 | ≤ 30 | – | – | – | – | –
2 | CC(C)CNC(=O)c1ccc(C2=NOC(c3ccc(F)c(C(F)(F)F)c3)(C(F)(F)F)C2)c2ccncc12 (stereo not shown) [Compound 71] | ≤ 40 | ≤ 40 | – | ≤ 40 | – | at least 80% | – | at least 80% | – | at least 80% | at least 50% | – | ≤ 30 | ≤ 40 | ≤ 40 | at least 50% | ≤ 30 | –
3 | COCCNC(=O)c1ccc(C2=NOC(c3ccc(F)c(C(F)(F)F)c3)(C(F)(F)F)C2)c2ccncc12 (stereo not shown) [Compound 72] | ≤ 40 | ≤ 40 | – | ≤ 40 | at least 80% | – | – | at least 80% | at least 80% | at least 80% | at least 50% | – | ≤ 30 | – | – | – | – | –
4 | C=CCNC(=O)c1ccc(C2=NOC(c3ccc(F)c(C(F)(F)F)c3)(C(F)(F)F)C2)c2ccncc12 (stereo not shown) [Compound 73] | ≤ 40 | ≤ 40 | ≤ 40 | ≤ 40 | at least 80% | – | – | at least 80% | at least 80% | at least 80% | – | – | ≤ 30 | – | – | – | – | –
5 | O=C(NCc1ncccn1)c1ccc(C2=NOC(c3cc(Cl)c(F)c(C(F)(F)F)c3)(C(F)(F)F)C2)c2ccncc12 (stereo not shown) [Compound 75] | ≤ 40 | ≤ 40 | – | ≤ 40 | at least 80% | – | – | at least 80% | – | at least 80% | at least 50% | ≤ 30 | ≤ 30 | – | – | – | – | –
6 | O=C(NCc1ncccn1)c1ccc(C2=NOC(c3ccc(F)c(C(F)(F)F)c3)(C(F)(F)F)C2)c2ccncc12 (stereo not shown) [Compound 76] | ≤ 40 | ≤ 40 | – | – | at least 80% | at least 80% | – | at least 80% | at least 80% | at least 80% | at least 50% | ≤ 30 | ≤ 30 | – | – | – | – | –
7 | O=C(NCC1CC1)c1ccc(C2=NOC(c3cc(Cl)c(F)c(C(F)(F)F)c3)(C(F)(F)F)C2)c2ccncc12 (stereo not shown) [Compound 77] | ≤ 40 | ≤ 40 | ≤ 40 | ≤ 40 | – | at least 80% | – | at least 80% | – | at least 80% | at least 50% | ≤ 30 | ≤ 30 | – | – | – | – | –
8 | CON=CNC(=O)c1ccc(C2=NOC(c3cc(Cl)c(F)c(Cl)c3)(C(F)(F)F)C2)c2ccncc12 (stereo not shown) [Compound 81] | ≤ 40 | ≤ 40 | ≤ 40 | ≤ 40 | at least 80% | at least 80% | at least 80% | at least 80% | at least 80% | at least 80% | – | ≤ 30 | ≤ 30 | – | – | – | – | at least 80%
9 | O=C(NC1CCC1)c1ccc(C2=NOC(c3cc(Cl)cc(C(F)(F)F)c3)(C(F)(F)F)C2)c2ccncc12 (stereo not shown) [Compound 86] | ≤ 40 | ≤ 40 | – | ≤ 40 | at least 80% | at least 80% | at least 80% | at least 80% | at least 80% | at least 80% | – | – | ≤ 30 | – | – | – | – | –
10 | O=C(NC1CCC1)c1ccc(C2=NOC(c3cccc(C(F)(F)F)c3)(C(F)(F)F)C2)c2ccncc12 (stereo not shown) [Compound 88] | ≤ 40 | ≤ 40 | ≤ 40 | ≤ 40 | at least 80% | – | – | at least 80% | – | – | – | ≤ 30 | ≤ 30 | – | – | – | – | –
11 | CCNC(=O)c1ccc(C2=NOC(c3cc(Cl)cc(C(F)(F)F)c3)(C(F)(F)F)C2)c2ccncc12 (stereo not shown) [Compound 90] | ≤ 40 | ≤ 40 | ≤ 40 | ≤ 40 | at least 80% | – | at least 80% | at least 80% | at least 80% | at least 80% | – | ≤ 30 | ≤ 30 | – | – | – | – | –
12 | C#CCNC(=O)c1ccc(C2=NOC(c3cc(Cl)cc(C(F)(F)F)c3)(C(F)(F)F)C2)c2ccncc12 (stereo not shown) [Compound 92] | ≤ 40 | ≤ 40 | ≤ 40 | ≤ 40 | at least 80% | at least 80% | – | at least 80% | – | at least 80% | – | ≤ 30 | ≤ 30 | – | – | – | – | –
